Measured values: PubChem BioAssay AID1347076 (National Center for Advancing Translational Sciences (NCATS), 2019)
Among all 400,000 compounds or so, about 13,000 (3.2%) were called active. Inconclusive results, whose numbers are uncertain, are shown with a selection of clear calls. Calls follow the shape of the dose curve; as a rule, active = well fitted cell-killing curve with a large enough effect; inconclusive = small, poorly fitted or top-dose-only effect, or effect the other way; inactive = flat fitted curve, though single readings scatter. Where the call is inconclusive, the potency comes from a doubtful curve fit.

Test: qHTS assay for MDR1-selective chemotherapeutics: Primary screen using the drug-selected MDR subline cells KB-V1; also: nearly all actives have a fitted effect of over 60% in size
Conditions: KB-V1 MDR cells viability, CellTiter-Glo, 72 h; activity change, negative = cytotoxicity: at 46.1 µM (top of the series)
In short: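 Cytotoxicity via CellTiter-Glo luminescence after 72 h compound exposure at 37 degrees C. Cells: drug-selected KB-V1 line, DMEM phenol-red free plus 10% FBS. Compounds tested at multiple concentrations; normalized data fitted to concentration-effect curves.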
% is scaled to controls: 0 for no effect and ±100 for the full control effect; potency is read from the fitted curve at half-maximal effect.

| Structure (SMILES) | Potency | activity change, negative = cytotoxicity |
| --- | --- | --- |
| Cc1ccc(-c2nc(S(=O)(=O)c3ccc(C)cc3)c(SCC(N)=O)o2)cc1 | inconclusive: 29.1 µM [cytotoxic, single point] |  |
| COc1ccc([C@H]2CC(=O)C=C(c3ccc4c(c3)OCCO4)C2)cc1 | inconclusive: 29.1 µM [rising, single point] |  |
| O=C(Cc1ccc([N+](=O)[O-])cc1)N1CCc2ccccc2C1 | inconclusive: 18.4 µM [cytotoxic, single point] |  |
| CCCC(c1nnnn1C(C)(C)CC)N(Cc1ccco1)Cc1cc2ccc(OC)cc2[nH]c1=O (stereo unspecified) | inconclusive: 20.6 µM [cytotoxic, partial curve] |  |
| CCCn1c(N)c(N(CCOC)C(=O)CSc2cc(C)c3ccccc3n2)c(=O)[nH]c1=O |  | inactive: -2.19% |
| O=C(COc1ccc2ccccc2c1CN1CCOCC1)N1CCc2ccccc21 | inconclusive: 29.1 µM [cytotoxic, single point] |  |
| Cc1ccc2[nH]c(=O)c(C3C(C#N)=C(N)Oc4c3ccc3cccnc43)cc2c1 (stereo unspecified) | active: 2.59 µM |  |
| Oc1ccc(/C=N/Nc2nc(-c3ccc(Cl)cc3)cc(C(F)(F)F)n2)cc1 | inconclusive: 29.1 µM [cytotoxic, single point] |  |
| CC1CN(S(=O)(=O)c2cccc(C(=O)Nc3ccc(S(=O)(=O)Nc4ncccn4)cc3)c2)CC(C)O1 (stereo unspecified) | inconclusive: 13 µM [rising, partial curve, poor fit] |  |
| COc1ccc(CCN2C(=O)N(c3cccc(C)c3)C(=O)C2CC(=O)Nc2ccccc2)cc1OC (stereo unspecified) |  | inactive: 5.87% |
| O=C(NNC(=S)Nc1ccccc1Cl)c1ccncc1 |  | inactive: 25.1% |
| O=c1[nH]c(=O)n(CCCc2ccccc2)cc1-c1ccccc1 | active: 13 µM |  |
| CC1CCCCC1NC(=O)CN(C)S(=O)(=O)c1cccc2cccnc12 (stereo unspecified) | inconclusive: 20.6 µM [cytotoxic, single point] |  |
| Cc1cccc2sc(N(CCCN(C)C)C(=O)CCc3ccccc3)nc12 | active: 16.4 µM |  |
| Cc1cc(Br)cn2c(Cc3ccccc3C(F)(F)F)c(C3CCCCC3)nc12 | inconclusive: 16.4 µM [rising, partial curve, poor fit] |  |
| CCCN(CC(=O)Nc1cc(Cl)ccc1Cl)C(=O)c1ccc(N2CCCC2=O)cc1 | active: 7.31 µM |  |
| Cc1cccc(N2CCN(C(=O)c3ccc(S(=O)(=O)N(C)c4ccccc4)cc3)CC2)c1C | active: 23.1 µM |  |
| O=S1(=O)c2ccccc2N(Cc2cccc(F)c2)c2ccccc21 |  | inactive: 3.78% |
| COc1ccc2c(c1)OC(O)(C(F)(F)C(F)F)CC2=O (stereo unspecified) | inconclusive: 29.1 µM [cytotoxic, single point] |  |
| COc1cccc(-c2cc(C(F)(F)F)nc(NCCc3ccc(OC)c(OC)c3)n2)c1 |  | inactive: -12.1% |
| CN(C(=O)c1ccccc1C(=O)OCC(=O)NC(=O)NC(C)(C)C)C1CCCCC1 | inconclusive: 29.1 µM [cytotoxic, single point] |  |
| CN(C)S(=O)(=O)c1ccc(C(=O)Nc2cccnc2)cc1 |  | inactive: -12.3% |
| CSc1ccc(-c2nnn(CC(=O)Nc3sc4c(c3C#N)CCC(C(C)(C)C)C4)n2)cc1 (stereo unspecified) |  | inactive: 0.524% |

| Structure (SMILES) | Potency | activity change, negative = cytotoxicity |
| --- | --- | --- |
| CN(C)S(=O)(=O)c1cccc(C(=O)NCC(=O)NC2CCN(Cc3ccccc3)CC2)c1 | inconclusive: 23.1 µM [rising, single point] |  |
| CCCN(CCC)C(=O)Cn1c(=O)n(-c2cccc(C)c2)c(=O)c2c1c1cc(OC)ccc1n2C |  | inactive: 23.7% |
| Cc1ccc(NC(=O)c2ccncc2)cc1S(=O)(=O)N(C)C |  | inactive: 0% |
| CS(=O)(=O)NNC(=O)c1sccc1OCc1ncc(C(F)(F)F)cc1Cl | inconclusive: 10.3 µM [cytotoxic, partial curve, poor fit] |  |
| CC(C)CC(=O)NCC(c1ccc2c(c1)OCO2)N1CCN(c2ccccc2)CC1 (stereo unspecified) |  | inactive: 11.7% |
| O=C(NCCN1CCCCC1)/C(=N\O)c1ccccc1 | inconclusive: 7.31 µM [rising, partial curve, poor fit] |  |
| CCOC(=O)c1oc2ccccc2c1NC(=O)c1ccccc1OC | inconclusive: 10.3 µM [cytotoxic, partial curve, poor fit] |  |
| Cc1cc2n(c(=O)c1C#N)CCCN2c1cccc(Cl)c1 | active: 13 µM |  |
| COc1ccc(-c2cc(C(=O)N3CCN(c4ccc(F)cc4)CC3)no2)cc1 | active: 18.4 µM |  |
| Cc1ccc(-n2c(-c3ccc(Br)cc3)c[n+]3c2CCc2ccc4cccnc4c2-3)cc1 | inconclusive: 29.1 µM [cytotoxic, single point] |  |
| COc1ccc(-c2[nH]nc3nc(-c4cc(Br)ccc4OC)cc(C(=O)O)c23)cc1 | inconclusive: 25.9 µM [rising, single point] |  |
| CCSc1nnc(-c2ccncc2)n1Cc1ccccc1 | inconclusive: 23.1 µM [cytotoxic, partial curve, poor fit] |  |
| COc1cc(-c2oc3cc(O)cc(O)c3c(=O)c2O[C@@H]2O[C@H](COC3O[C@@H](C)[C@H](O)[C@@H](O)[C@H]3O)[C@@H](O)[C@H](O)[C@H]2O)ccc1O (stereo partly specified) |  | inconclusive: 30.4% |
| O=C(Nc1cccc(-c2csc(Nc3cccc(C(F)(F)F)c3)n2)c1)c1cc([N+](=O)[O-])cc(C(F)(F)F)c1 |  | inactive: 5.63% |
| CC1CCC2(CC1)NC(=O)N(CC(=O)NCc1ccco1)C2=O (stereo unspecified) |  | inactive: 11.2% |
| COc1ccc(C(=O)NCc2nnc(SCC(=O)N3CCCC3)o2)cc1 |  | inconclusive: -4.15% |
| Cc1cc(C(=O)OCC(=O)NCc2cccs2)c2ccccc2n1 |  | inactive: -11.9% |
| Cc1cccc(-n2c(SCc3ccc(C#N)cc3)nnc2-c2c[nH]c3ccccc23)c1 | active: 3.26 µM |  |
| Nc1ccc(/C=C/c2nccc3ccccc23)cc1 | inconclusive: 18.4 µM [cytotoxic, single point] |  |
| CCOCCCNC(=O)c1cc(=O)n(Cc2cccc(C)c2)c2ccccc12 | active: 9.2 µM |  |
| CCOc1ccc(S(=O)(=O)NCc2ccc(C)cc2)c2cccnc12 |  | inactive: 2.76% |
| COCCCNC(=S)NC1CC2CCCC(C1)N2Cc1cccs1 (stereo unspecified) | inconclusive: 9.2 µM [cytotoxic, partial curve, poor fit] |  |
| CCCCN(C(=O)C1CCC(CNS(=O)(=O)c2cccc3nsnc23)CC1)c1ccccc1 (stereo unspecified) | inconclusive: 8.2 µM [cytotoxic, partial curve] |  |

A second format for part of the listing above:
CC(C)CC(=O)NCC(c1ccc2c(c1)OCO2)N1CCN(c2ccccc2)CC1 (stereo unspecified)
  activity change, negative = cytotoxicity: inactive: 11.7%
O=C(NCCN1CCCCC1)/C(=N\O)c1ccccc1
  Potency: inconclusive: 7.31 µM [rising, partial curve, poor fit]
CCOC(=O)c1oc2ccccc2c1NC(=O)c1ccccc1OC
  Potency: inconclusive: 10.3 µM [cytotoxic, partial curve, poor fit]
